These are yes or no findings as the source states them, for the method shown. Some binding calls cover weakened binding; strength is not graded here. Sequences can lack the tags named with a protein.
B1: SP3 E27P (peptide)
peptide: KPACGELTGTVCE
modifications: N-terminal acetyl (Ac-); C-terminal amide (-NH2)
B2: SP6 E31D (peptide)
peptide: KEACGDLTGTVCE
modifications: N-terminal acetyl (Ac-); C-terminal amide (-NH2)
B3: SP7 T33P (peptide)
peptide: KEACGELPGTVCE
modifications: N-terminal acetyl (Ac-); C-terminal amide (-NH2)
B4: DP3 E27K E38F (peptide)
peptide: KKACGELTGTVCF
modifications: N-terminal acetyl (Ac-); C-terminal amide (-NH2)

biological target: T1, recombinant BTLA-Fc protein (B and T lymphocyte attenuator) (UniProt Q7Z6A9); test: ELISA; competitive ELISA, primary screen: BTLA-Fc coated (350 ng/well), peptide 1 mg/mL in PBS for 12 h at room temperature, washed, then HVEM-biotin 2 h at room temperature, streptavidin-HRP; response as percent of the control; both purified
T1 sequence: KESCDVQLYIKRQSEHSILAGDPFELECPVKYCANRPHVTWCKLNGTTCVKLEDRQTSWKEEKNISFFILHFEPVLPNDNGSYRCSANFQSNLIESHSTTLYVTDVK

binding, binds:
B1
B2
B3
B4
